Experimental findings from the supplement of paper PMC11006884 are described below.

By UniProt entry, the sequences of proteins in these tests, tags left out. Where a name states a change or a piece, a line headed by the entry shows the natural chain unless it says otherwise.
UniProt P26368, whole entry, looked up: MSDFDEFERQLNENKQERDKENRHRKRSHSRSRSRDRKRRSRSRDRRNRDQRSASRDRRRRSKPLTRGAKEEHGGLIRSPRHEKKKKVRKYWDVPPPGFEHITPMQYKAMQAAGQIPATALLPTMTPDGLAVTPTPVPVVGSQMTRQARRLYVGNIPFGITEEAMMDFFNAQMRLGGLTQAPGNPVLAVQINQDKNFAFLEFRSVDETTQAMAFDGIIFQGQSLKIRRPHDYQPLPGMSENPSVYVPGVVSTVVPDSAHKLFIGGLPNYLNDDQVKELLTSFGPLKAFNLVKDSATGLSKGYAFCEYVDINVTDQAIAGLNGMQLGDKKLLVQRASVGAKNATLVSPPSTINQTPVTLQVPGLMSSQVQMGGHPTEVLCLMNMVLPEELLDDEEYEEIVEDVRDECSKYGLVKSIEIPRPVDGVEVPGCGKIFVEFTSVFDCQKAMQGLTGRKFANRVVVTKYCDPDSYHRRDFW
UniProt P26358: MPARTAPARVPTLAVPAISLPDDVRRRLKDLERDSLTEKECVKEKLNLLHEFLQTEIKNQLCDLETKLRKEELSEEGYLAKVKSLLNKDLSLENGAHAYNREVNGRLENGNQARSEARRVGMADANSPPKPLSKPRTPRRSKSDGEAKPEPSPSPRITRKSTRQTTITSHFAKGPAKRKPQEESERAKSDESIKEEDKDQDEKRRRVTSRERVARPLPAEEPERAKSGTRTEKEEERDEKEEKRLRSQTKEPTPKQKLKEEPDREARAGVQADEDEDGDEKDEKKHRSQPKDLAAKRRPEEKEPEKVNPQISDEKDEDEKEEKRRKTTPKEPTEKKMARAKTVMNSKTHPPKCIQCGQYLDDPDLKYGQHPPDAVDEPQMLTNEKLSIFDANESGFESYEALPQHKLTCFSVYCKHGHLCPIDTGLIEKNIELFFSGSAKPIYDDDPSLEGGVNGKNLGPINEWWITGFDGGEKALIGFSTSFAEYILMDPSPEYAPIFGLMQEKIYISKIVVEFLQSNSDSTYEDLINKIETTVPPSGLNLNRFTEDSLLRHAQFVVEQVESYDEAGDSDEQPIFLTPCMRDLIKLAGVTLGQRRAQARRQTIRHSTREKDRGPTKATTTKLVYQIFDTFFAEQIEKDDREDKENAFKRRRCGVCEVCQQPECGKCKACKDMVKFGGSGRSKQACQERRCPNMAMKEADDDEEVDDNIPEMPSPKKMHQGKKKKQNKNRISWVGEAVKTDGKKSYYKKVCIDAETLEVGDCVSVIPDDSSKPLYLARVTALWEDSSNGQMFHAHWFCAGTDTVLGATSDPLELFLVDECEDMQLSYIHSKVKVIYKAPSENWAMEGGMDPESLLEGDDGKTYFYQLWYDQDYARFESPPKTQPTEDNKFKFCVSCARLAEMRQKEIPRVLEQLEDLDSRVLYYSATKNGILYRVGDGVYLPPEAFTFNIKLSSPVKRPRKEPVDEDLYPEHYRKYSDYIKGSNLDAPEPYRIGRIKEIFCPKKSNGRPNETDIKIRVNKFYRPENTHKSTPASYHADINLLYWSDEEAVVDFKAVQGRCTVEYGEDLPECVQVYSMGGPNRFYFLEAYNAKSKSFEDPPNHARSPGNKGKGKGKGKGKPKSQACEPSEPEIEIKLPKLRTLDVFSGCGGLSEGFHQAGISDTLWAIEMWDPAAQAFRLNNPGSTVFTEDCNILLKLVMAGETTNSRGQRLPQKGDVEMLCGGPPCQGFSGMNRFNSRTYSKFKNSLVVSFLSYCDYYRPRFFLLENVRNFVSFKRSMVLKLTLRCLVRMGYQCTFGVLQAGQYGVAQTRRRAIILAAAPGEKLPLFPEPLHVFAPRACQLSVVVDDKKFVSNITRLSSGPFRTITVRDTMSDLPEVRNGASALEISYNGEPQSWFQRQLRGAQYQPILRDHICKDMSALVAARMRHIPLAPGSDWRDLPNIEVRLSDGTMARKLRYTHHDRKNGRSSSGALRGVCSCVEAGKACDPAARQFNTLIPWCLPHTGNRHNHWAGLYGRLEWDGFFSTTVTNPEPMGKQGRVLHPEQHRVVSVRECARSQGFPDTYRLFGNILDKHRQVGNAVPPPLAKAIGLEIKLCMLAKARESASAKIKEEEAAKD
UniProt P21333, whole entry, looked up: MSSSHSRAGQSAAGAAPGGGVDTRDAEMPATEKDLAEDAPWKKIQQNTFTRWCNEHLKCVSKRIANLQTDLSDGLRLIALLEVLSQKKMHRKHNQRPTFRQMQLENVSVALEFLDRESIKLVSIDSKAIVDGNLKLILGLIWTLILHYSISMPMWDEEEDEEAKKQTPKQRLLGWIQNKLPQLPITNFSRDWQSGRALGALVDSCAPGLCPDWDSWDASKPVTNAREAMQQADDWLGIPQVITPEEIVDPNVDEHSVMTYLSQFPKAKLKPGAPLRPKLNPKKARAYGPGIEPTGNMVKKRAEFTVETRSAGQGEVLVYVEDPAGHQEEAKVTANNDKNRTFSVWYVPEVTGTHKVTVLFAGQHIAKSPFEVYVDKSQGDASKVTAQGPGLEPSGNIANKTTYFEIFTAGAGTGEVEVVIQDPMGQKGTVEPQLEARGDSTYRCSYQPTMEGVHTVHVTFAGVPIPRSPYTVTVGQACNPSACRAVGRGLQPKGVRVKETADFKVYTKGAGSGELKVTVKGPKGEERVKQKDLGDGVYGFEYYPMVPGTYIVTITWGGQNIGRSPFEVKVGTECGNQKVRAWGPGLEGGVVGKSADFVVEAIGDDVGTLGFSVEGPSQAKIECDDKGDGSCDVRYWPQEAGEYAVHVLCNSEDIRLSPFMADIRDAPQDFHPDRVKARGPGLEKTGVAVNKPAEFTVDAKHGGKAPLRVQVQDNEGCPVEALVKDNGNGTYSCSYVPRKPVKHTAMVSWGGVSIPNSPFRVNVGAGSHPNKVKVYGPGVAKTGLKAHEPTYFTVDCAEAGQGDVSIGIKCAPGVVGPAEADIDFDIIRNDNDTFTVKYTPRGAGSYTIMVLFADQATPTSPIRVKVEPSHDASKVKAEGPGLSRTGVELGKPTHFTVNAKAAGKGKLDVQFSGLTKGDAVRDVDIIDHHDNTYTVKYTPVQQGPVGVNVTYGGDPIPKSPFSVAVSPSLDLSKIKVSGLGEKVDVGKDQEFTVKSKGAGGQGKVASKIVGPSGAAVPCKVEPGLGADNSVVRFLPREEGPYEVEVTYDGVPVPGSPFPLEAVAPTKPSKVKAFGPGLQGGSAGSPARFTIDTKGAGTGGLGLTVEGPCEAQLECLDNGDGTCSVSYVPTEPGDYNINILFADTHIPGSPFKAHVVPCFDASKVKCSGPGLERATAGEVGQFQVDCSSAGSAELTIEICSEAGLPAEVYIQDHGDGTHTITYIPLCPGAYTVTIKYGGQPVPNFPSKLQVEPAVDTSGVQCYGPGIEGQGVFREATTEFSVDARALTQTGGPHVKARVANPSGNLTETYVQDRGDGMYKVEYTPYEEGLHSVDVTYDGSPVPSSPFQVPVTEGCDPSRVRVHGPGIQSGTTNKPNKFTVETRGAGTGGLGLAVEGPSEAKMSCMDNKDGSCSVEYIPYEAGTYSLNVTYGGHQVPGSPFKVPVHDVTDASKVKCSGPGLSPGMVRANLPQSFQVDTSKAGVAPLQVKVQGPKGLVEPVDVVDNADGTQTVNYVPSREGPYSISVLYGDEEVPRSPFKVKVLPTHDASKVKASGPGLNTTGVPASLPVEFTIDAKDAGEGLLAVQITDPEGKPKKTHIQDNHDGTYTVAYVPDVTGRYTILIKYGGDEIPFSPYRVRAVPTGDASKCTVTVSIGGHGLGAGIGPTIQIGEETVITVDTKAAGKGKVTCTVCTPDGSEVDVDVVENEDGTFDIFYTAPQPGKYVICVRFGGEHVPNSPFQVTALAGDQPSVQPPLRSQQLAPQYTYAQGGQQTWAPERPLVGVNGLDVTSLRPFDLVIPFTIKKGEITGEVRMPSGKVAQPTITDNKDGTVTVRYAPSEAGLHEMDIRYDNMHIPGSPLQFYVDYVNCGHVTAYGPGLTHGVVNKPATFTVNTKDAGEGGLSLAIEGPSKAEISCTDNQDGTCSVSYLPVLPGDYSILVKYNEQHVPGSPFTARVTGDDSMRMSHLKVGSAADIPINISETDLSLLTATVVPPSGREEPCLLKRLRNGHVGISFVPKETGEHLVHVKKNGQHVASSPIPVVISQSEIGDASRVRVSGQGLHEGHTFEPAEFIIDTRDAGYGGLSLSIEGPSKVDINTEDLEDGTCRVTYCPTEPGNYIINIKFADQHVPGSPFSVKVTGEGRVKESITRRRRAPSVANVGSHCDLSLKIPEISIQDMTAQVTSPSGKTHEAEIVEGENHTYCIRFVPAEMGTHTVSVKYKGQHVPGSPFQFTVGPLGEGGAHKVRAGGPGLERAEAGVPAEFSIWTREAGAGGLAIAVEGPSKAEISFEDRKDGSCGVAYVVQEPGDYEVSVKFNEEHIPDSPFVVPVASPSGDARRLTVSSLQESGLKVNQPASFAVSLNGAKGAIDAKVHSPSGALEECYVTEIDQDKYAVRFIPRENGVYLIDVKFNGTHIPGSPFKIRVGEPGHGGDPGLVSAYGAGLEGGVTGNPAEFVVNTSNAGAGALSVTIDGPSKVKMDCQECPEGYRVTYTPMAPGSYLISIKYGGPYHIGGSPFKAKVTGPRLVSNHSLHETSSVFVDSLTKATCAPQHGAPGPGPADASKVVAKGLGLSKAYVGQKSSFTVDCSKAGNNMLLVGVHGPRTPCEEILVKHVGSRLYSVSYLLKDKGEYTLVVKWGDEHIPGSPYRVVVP
UniProt P29401: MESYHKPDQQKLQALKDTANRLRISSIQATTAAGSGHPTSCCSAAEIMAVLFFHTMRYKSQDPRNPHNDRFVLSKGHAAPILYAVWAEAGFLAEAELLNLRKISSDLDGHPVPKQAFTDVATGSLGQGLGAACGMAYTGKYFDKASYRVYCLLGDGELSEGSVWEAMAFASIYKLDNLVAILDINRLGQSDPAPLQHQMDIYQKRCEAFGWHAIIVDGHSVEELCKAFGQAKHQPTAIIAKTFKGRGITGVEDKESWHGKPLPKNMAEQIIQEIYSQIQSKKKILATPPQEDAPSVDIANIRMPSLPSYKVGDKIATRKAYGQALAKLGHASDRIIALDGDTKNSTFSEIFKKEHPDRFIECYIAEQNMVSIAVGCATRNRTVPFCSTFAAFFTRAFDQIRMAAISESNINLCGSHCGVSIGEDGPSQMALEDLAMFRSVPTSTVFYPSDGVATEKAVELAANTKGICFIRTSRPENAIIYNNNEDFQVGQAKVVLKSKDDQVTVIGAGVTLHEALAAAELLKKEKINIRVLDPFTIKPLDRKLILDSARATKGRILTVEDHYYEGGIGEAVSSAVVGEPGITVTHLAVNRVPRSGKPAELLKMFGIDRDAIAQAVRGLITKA
UniProt P27816: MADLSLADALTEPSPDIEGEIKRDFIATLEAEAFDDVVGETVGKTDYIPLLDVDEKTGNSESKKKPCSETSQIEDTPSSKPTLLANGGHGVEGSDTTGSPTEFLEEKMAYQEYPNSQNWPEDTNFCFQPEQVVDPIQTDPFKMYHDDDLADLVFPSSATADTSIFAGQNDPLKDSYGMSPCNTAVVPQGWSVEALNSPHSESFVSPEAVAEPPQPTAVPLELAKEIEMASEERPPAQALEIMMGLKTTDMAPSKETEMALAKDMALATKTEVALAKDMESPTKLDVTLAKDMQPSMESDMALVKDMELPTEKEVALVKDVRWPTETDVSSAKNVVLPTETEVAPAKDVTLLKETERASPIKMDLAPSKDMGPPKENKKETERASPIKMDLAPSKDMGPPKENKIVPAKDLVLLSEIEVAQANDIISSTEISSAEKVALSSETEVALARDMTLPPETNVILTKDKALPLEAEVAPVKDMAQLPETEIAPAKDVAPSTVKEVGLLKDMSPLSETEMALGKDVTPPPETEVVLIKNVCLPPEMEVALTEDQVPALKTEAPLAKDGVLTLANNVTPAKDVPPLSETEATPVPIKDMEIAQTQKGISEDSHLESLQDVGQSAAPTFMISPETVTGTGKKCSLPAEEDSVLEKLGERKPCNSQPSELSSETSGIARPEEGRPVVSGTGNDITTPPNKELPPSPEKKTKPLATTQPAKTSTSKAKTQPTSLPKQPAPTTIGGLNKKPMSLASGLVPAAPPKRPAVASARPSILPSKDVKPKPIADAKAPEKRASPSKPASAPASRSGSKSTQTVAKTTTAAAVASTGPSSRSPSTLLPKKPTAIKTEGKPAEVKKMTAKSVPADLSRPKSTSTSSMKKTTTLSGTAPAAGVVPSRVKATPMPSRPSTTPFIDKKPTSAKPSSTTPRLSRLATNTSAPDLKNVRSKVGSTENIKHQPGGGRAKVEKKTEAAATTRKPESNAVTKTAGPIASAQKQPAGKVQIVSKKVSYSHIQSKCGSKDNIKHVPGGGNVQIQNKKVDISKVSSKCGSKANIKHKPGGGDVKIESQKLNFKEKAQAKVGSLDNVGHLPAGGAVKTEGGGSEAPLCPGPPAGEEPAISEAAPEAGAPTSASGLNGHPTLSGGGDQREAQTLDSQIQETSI

The entries are a selection whose mix differs from that of the whole data set.

Compound in the assay: COC(=O)C#Cc1ccccc1 [methyl 3-phenylpropiolate]
Nature of the assay: log2 ratio of iodoacetamide-alkyne labeling of the cysteine site, DMSO over compound (competition); higher = stronger covalent engagement of the cysteine by the compound, active = 1 or more. To be noted: 500 µM; treatment time 1 h; system: HEK293T cell lysate. The essentials:
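After 1 h at ambient temperature with vehicle or electrophile (500 µM), HEK293T lysate (2 mg/mL) was labelled for 1 h with iodoacetamide alkyne and clicked to sCIP-TMT reagents. Pooled samples were trypsin-digested overnight at 37 °C, streptavidin-enriched, acid-eluted and analysed by Orbitrap Eclipse LC-MS/MS with FAIMS, then quantified in FragPipe over three replicates with duplicate channels. A cysteine's log2 competition ratio is its mean control-channel over mean compound-channel reporter intensity. Cysteines quantified in only one replicate were not included.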
On to MPG C56 (UniProt P29372), for which the “log2 ratio of iodoacetamide-alkyne labeling” value (from here on “log2 ratio”) was active: 1.66.
Then U2AF2 C464 (UniProt P26368), with inactive: -0.0557.
Then UniProt P25398_C56, with inactive: -0.109.
The result for RRM1 C352 (UniProt P23921) reads inactive: 0.357.
As to DNMT1 C1478 (UniProt P26358), the “log2 ratio” value is inactive: 0.24.
The result for YWHAQ C25 (UniProt P27348) reads inactive: -0.104.
Take FLNA C1453 (UniProt P21333): the “log2 ratio” value is inactive: 0.357.
Then NDUFV2 C225 (UniProt P19404), with inactive: 0.2; and FLNA C478 (UniProt P21333), with inactive: 0.00171.
The result for NFKB1 C61 (UniProt P19838) reads inactive: 0.822.
Then APEX1 C93 (UniProt P27695), with inactive: 0.0645; and TKT C386 (UniProt P29401), with inactive: -0.878; and UniProt P26639_C656, with inactive: 0.155.
For the target FLNA C1402 (UniProt P21333), the “log2 ratio” value is inactive: 0.0938.
For the target COMT C238 (UniProt P21964), the “log2 ratio” value was inactive: 0.176.
The result for CFL1 C39 (UniProt P23528) reads inactive: -0.222; that for CAST C328 (UniProt P20810), inactive: 0.06.
Take ARNT C380 (UniProt P27540): the “log2 ratio” value is inactive: 0.324.
Regarding GART C291 (UniProt P22102), the “log2 ratio” value is inactive: 0.226.
The result for EEF1G C194 (UniProt P26641) reads inactive: 0.0462.
The result for MAP4 C535 (UniProt P27816) reads inactive: -0.0505; that for RRM1 C790 (UniProt P23921), inactive: 0.627.
